The values below come from patent US20090170219.

Chains of the proteins cited; added tags and fusions are not shown. A line that says so, or that is headed by a name, gives the form on record, which may keep a tag or linker.
IgD (human), one chain, as listed by the source: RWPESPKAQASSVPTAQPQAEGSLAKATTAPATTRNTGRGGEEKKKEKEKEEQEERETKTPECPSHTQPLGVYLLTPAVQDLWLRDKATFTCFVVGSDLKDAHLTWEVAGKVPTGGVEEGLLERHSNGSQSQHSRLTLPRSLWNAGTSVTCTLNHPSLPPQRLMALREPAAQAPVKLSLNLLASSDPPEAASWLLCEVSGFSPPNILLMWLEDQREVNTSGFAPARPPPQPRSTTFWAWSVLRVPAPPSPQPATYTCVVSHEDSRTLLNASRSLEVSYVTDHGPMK
IgE (human), one chain, as listed by the source: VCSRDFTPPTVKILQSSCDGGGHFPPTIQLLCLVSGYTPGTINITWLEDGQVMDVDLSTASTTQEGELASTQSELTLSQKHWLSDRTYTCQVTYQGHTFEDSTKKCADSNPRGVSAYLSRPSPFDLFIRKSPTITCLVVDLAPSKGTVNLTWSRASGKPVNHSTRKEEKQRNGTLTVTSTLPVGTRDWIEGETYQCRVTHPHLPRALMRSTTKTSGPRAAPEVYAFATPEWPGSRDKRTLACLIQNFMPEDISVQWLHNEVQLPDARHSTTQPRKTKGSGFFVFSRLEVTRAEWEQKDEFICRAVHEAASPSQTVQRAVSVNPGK
IgM (human), one chain, as listed by the source: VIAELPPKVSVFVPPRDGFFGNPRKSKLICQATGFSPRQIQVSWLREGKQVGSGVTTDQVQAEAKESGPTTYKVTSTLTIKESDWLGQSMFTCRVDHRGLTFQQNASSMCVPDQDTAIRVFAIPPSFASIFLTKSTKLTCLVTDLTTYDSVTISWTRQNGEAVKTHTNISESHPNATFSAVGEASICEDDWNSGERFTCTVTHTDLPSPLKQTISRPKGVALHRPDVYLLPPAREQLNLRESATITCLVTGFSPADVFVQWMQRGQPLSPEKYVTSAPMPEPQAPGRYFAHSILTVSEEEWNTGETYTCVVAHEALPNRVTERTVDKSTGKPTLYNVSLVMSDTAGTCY

One data set concerns IgE (human). Briefly: SPR. The following applies: 2'-F at all pyrimidines, purified native protein, protein details: Calbiochem, label: 3' A16 tail for immobilisation.
In the next data set the test system is IgA (human). Put plainly: SPR. To be noted: 2'-F at all pyrimidines; purified native protein; protein details: Bethyl Laboratories; label: 3' A16 tail for immobilisation; variant of SEQ ID NO:16.
The subject of a further data set is IgG (dog). Briefly: SPR. To be noted: 2'-F at all pyrimidines, purified native protein, protein details: Rockland, label: 3' A16 tail for immobilisation.
The next data set has as its system IgM (human). Briefly: SPR. The following applies: 2'-F at all pyrimidines; very weak but measurable; purified native protein; protein details: Chemicon International; label: 3' A16 tail for immobilisation; variant of SEQ ID NO:16.
The subject of the next data set is IgG (cat). Briefly: SPR. To be noted: 2'-F at all pyrimidines, purified native protein, protein details: Bethyl Laboratories, label: 3' A16 tail for immobilisation.
Another data set concerns IgD (human). Put plainly: SPR. To be noted: 2'-F at all pyrimidines, purified native protein, protein details: Biogenesis, label: 3' A16 tail for immobilisation.
A further data set relates to IgG1 (human). Put plainly: SPR. To be noted: purified native protein, protein details: Calbiochem.
In another data set the test system is IgG in serum (mouse). Briefly: pull-down. The following applies: 2'-F at all pyrimidines; mouse serum; rProtein A did pull down IgG; protein in an extract; protein details: mouse serum, Chemicon International; label: 3' A16 tail for SPR, 5' biotin for serum pull-down; variant of SEQ ID NO:13.
The test system of the next data set is IgG in serum (human). Put plainly: pull-down. The following applies: 2'-F at all pyrimidines; 150 mM NaCl, 2.5 mM MgCl2, 20 mM Tris pH 7.6 wash; eluted by 200 mM KCl + 10 mM EDTA; protein in an extract; protein details: human serum, Chemicon International; label: 3' A16 tail for SPR, 5' biotin for serum pull-down; variant of SEQ ID NO:13.
The test system of data set [1] is IgG Fc fragment (IgG-Fc) (human). Briefly: SPR. To be noted: 2'-F at all pyrimidines; 0.6 uM IgG-Fc; purified native protein; protein details: Athens Research & Technology; label: 3' A16 tail for immobilisation.

For some assays here: Negatives hold for the conditions tested. For some assays here: Weaker means in comparison with the reference protein, sequence or condition of that experiment. For some assays here: Construct, isoform or probe ends are uncertain for at least one entry. For some assays here: Results from cells or extracts need not show a direct contact.

Turning to GGAGGUGCUCCGAAAGGAACUCC [SEQ ID NO:17], the binding result is recorded as “no binding” in the data set on IgE (human) (variant of SEQ ID NO:16); “no binding” in the data set with IgA (human); “no binding” with IgG (dog) (variant of SEQ ID NO:16); “binds more weakly” in the data set on IgM (human); “no binding” with IgG (cat) (variant of SEQ ID NO:16); “no binding” in the data set with IgD (human) (variant of SEQ ID NO:16). With “GGAGGUGCUCCGAAAGGAACUCC [SEQ ID NO:17-7-5]”, the binding result in the data set with IgG1 (human) (as 17-7, bulge G(OH)G(OH)U(F)U(F)C(H)U(OH), variant of SEQ ID NO:17-7 (23F23)) is on record as “no binding”. For “GGAGGUGCUCCGAAAGGAACUCC [SEQ ID NO:17-7-2]”, in the data set with IgG1 (human) (as 17-7, bulge G(OH)C(F)U(F)G(OH)C(H)U(OH), variant of SEQ ID NO:17-7 (23F23)), the binding result is recorded as “no binding”. Regarding “GGACGAGUUACAGGUGCUCCAUCAACAAAAUGUUACAUGGAACUGUAACGGCCG [SEQ ID NO:11 natural RNA]”, the binding result in the data set with IgG1 (human) (amount of IgG1 bound decreased vs 2'-F RNA, variant of SEQ ID NO:11) is listed as “binds more weakly”. In the case of “GGAGGUGCUCCGAAAGGAACTCCAAAAAAAAAAAAAAAA [SEQ ID NO:17-3 (23F3)]”, the binding result in the data set with IgG1 (human) (deoxy G1 G2 A3 C10-G17 T21 C22 C23 and A16 tail, 2'-F U6 C8 U9 C20, rest 2'-OH, parent SEQ 17 ++, variant of SEQ ID NO:17) is on record as “binds more weakly”.

Regarding “GGACAGGUGCUCUGCGAGCCACGCGGAACUGUCC [SEQ ID NO:13 natural RNA]”, the binding result in the data set with IgG1 (human) (amount of IgG1 bound decreased vs 2'-F RNA, variant of SEQ ID NO:13) was “binds more weakly”. For the sequence “GGAGGUGCUCCGAAAGGAACUCC [SEQ ID NO:17-7-1]”, the binding result with IgG1 (human) (as 17-7, bulge G(OH)A(OH)U(F)G(OH)C(H)U(OH), variant of SEQ ID NO:17-7 (23F23)) was “no binding”. For “GGAGGUGCUCCGAAAGGAACUCC [SEQ ID NO:17-7-3]”, in the data set with IgG1 (human) (as 17-7, bulge G(OH)G(OH)C(F)G(OH)C(H)U(OH), variant of SEQ ID NO:17-7 (23F23)), the binding result is recorded as “no binding”. Turning to “GGAGGUGCUCUGCGAGCCACGCGGAACUCC [SEQ ID NO:15]”, the binding result with IgG in serum (mouse) is “no binding”; with IgG in serum (human) it was “binds”. Regarding “GGAGGUGCUCCGAAAGGAACUCC [SEQ ID NO:17-7-4]”, in the data set with IgG1 (human) (as 17-7, bulge G(OH)G(OH)U(F)A(OH)C(H)U(OH), variant of SEQ ID NO:17-7 (23F23)), the binding result was “no binding”. Turning to “GGGCCACAGCGAGGUGCUCCACCAUUCACGUGGAACUCGUGGGCAGCCCGUCCCCGCGUGUGGUCGG [SEQ ID NO:9]”, the binding result in data set [1] is reported as “binds”. Take “GGAGGUGCUCCGAAAGGAACUCC [SEQ ID NO:17-7-102]”: the binding result in the data set on IgG1 (human) (as 17-7 with 2'-OH U6, variant of SEQ ID NO:17-7 (23F23)) was “no binding”. Regarding “GGGACACAAUGGACGAGUUACAGGUGCUCCAUCAACAAAAUGUUACAUGGAACUGUAACGGCCGACAUGAGAG [SEQ ID NO:1]”, the binding result in the data set with IgE (human), in the data set with IgG (dog), in the data set with IgG (cat) and in the data set with IgD (human) was “no binding” throughout. With “GGAGGUGCUCCGAAAGGAACUCC [SEQ ID NO:17-7-103]”, the binding result with IgG1 (human) (as 17-7 with 2'-H U6, variant of SEQ ID NO:17-7 (23F23)) was “no binding”.
